Results are given in words; binding and its absence hold for the method and conditions named. Some results given as binding are weak or reduced against the parent protein; the word gives no strength.
Legend:
[1] = target: purified CD40 (Homo sapiens (Human)) (UniProt P25942); assay: FACS; 15B8 detected with FITC anti-huIgG on CD40L-expressing CHO cells via purified CD40
[2] = target: rhesus monkey CD40 expressed on peripheral blood B cells (rhesus monkey) (UniProt F6SNI1); assay: FACS analysis on peripheral blood B cells
[3] = target: baboon CD40 expressed on peripheral blood B cells (baboon); assay: FACS analysis on peripheral blood B cells
[4] = target: chimpanzee CD40 expressed on peripheral blood B cells (chimpanzee) (UniProt K7BNQ5); assay: FACS analysis on peripheral blood B cells
[5] = target: cynomologus monkey CD40 expressed on peripheral blood B cells (cynomologus monkey) (UniProt G7PG38); assay: FACS analysis on peripheral blood B cells
[6] = target: soluble CD40 (Homo sapiens (Human)) (UniProt P25942); assay: ELISA-type assays

Amino acid sequences for entries named in this document (tags omitted). A change or cut given only in a name is not applied to a line headed by its entry. Chains listed by the source or under a name are the forms on record and can include a tag or linker.
UniProt P25942: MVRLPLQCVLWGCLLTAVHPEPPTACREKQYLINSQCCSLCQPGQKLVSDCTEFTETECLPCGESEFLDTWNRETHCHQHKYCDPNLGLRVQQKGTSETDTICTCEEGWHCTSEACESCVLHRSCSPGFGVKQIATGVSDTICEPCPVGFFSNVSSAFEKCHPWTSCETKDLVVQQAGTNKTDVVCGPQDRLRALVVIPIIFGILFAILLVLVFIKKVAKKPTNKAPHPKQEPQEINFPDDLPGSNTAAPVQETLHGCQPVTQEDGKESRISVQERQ
rhesus monkey CD40 expressed on peripheral blood B cells (F6SNI1, form named): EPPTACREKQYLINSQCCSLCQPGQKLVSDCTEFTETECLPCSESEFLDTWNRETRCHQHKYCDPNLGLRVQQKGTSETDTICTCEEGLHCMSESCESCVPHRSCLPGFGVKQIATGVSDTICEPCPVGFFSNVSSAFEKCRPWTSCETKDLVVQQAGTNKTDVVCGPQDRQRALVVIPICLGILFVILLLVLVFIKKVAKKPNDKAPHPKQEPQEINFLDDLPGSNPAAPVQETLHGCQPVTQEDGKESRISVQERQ

Measured: binding

B1: 15B8, fully human anti-CD40 monoclonal antibody (antibody, human IgG2, V domains shown)
VH: QVQLQESGGGVVQPGRSLRLSCAASGFTFNNFGIHWVRQAPGKGLEWVAVISYDGSDKYYADSVKGRFTISRDNSKNTLNLQMNSLRAEDTAVYYCARDRRYYYHYYGMDVWGQGTMVTVSS
VL: DIVMTQSPLSLSVAPGQPASISCKSSQSLLESYGETYLYWYLQKPGQPPQLLIYAVFKRFSGVPDRFSGSGSGTDFTLKISRVEAEDVGVYYCMQSMQLPLTFGGGTKVEIK
notes: Human IgG2 isotype with human kappa light chain, from hybridoma 15B8 (Xenomouse); two heavy and two light chains, 1,284 residues in all; In one FACS format it was directly FITC-labelled; also called antagonist anti-CD40 antibody 15B8; 15B8 MAb
binds: all assays above

— patent publication US20040109857A1 (Novartis, published 2004)
